Literature values, collected in PMC6680770, “Effect of Ticagrelor, a Cytochrome P450 3A4 Inhibitor, on the Pharmacokinetics of Tadalafil in Rats” (Pharmaceutics, 2019).

Settings: atorvastatin co-administered with ticagrelor; cited from earlier work

**Q.** For `CC(C)c1c(C(=O)Nc2ccccc2)c(-c2ccccc2)c(-c2ccc(F)cc2)n1CC[C@@H](O)C[C@@H](O)CC(=O)O` [atorvastatin], which “increase of area under the plasma concentration-time curve from 0 to infinity” value is on record?
**A.** 36%

**Q.** And the “increase of maximal plasma concentration” value?
**A.** 23%
